Laboratory results published in paper doi:10.1101/2025.06.18.660491.
Results are given in words; binding and its absence hold for the method and conditions named. Binding seen in cells or lysates may run through a third protein. Here binding means that the protein was enriched with, or labelled near, the bait; the list need not be complete.

The chains behind the UniProt entries cited, without tags or fusion partners.
UniProt O15027: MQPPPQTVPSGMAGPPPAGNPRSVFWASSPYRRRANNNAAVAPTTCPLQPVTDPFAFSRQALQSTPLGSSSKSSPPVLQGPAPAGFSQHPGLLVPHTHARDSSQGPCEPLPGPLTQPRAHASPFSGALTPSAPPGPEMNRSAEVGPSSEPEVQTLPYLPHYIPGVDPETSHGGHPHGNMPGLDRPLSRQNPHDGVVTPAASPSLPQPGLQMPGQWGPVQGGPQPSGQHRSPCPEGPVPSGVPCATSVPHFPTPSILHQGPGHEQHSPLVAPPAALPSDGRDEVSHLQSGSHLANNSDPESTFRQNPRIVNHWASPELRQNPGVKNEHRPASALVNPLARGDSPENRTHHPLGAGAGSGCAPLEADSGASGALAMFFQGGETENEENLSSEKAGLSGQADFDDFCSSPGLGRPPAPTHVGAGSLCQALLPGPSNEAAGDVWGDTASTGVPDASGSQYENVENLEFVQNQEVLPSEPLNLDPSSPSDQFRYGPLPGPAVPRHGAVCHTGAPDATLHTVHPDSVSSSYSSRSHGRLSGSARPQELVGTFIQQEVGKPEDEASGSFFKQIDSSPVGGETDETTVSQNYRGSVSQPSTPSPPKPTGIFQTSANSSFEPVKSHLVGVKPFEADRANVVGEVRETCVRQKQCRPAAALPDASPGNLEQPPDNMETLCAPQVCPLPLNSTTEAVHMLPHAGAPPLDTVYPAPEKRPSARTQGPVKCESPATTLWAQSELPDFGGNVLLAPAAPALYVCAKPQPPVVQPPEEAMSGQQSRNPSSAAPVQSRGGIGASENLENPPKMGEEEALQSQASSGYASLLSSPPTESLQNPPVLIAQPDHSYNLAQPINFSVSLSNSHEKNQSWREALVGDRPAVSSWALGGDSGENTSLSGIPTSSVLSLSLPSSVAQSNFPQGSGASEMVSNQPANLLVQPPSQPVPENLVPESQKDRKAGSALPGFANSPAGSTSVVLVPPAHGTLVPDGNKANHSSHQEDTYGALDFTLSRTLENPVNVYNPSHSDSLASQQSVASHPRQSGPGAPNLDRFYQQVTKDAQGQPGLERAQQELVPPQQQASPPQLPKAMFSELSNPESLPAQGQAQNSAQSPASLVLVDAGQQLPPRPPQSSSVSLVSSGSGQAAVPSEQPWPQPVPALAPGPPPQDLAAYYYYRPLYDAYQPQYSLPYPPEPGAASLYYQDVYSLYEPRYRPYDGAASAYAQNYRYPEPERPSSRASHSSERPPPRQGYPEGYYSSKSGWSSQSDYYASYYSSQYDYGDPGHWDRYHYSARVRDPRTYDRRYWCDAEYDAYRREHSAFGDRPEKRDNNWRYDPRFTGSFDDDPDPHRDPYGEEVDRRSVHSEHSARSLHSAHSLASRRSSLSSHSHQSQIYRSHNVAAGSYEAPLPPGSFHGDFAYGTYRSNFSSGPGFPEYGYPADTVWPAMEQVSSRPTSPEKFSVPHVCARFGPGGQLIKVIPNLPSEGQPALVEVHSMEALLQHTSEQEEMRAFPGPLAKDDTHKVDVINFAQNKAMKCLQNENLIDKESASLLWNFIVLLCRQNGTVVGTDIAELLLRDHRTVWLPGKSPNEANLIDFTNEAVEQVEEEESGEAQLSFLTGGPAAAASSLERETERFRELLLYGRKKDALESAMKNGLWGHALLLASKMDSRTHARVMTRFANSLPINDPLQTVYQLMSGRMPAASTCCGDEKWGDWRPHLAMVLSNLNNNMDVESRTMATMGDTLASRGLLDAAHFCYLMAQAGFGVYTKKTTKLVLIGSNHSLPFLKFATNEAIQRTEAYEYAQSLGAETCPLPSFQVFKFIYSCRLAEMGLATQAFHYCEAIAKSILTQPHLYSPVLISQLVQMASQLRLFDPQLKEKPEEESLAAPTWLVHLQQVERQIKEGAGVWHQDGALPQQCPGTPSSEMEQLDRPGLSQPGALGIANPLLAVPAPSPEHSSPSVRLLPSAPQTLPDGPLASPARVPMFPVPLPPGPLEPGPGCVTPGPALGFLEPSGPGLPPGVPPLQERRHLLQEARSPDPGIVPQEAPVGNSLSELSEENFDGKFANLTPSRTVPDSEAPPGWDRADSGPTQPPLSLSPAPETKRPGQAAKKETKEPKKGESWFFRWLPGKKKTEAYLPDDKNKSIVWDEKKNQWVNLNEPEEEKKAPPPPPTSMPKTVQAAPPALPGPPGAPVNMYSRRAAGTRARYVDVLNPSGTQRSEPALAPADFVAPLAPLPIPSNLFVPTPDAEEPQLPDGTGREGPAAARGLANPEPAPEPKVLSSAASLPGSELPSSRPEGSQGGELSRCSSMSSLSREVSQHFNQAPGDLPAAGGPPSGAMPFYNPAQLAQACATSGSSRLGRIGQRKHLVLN

How the values were obtained:
FLAG-Sec16 (human) = test: affinity purification with mass spectrometry
[1] = target: endogenous full-length Sec16 (human (endogenous in HeLa)) (UniProt O15027); test: affinity purification with mass spectrometry
TurboID-Sec13 = target: T1, TurboID-Sec13 (UniProt P55735); test: proximity labelling
T1 sequence: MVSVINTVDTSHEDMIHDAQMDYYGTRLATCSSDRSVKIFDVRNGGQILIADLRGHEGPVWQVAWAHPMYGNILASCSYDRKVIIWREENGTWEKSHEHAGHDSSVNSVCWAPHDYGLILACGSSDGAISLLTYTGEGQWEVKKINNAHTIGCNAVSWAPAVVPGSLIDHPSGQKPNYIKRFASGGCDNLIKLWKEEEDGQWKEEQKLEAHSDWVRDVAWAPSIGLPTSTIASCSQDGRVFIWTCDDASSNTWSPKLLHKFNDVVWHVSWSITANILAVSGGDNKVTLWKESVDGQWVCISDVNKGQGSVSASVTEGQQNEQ

TurboID-Sec13, P55735 = target: T2, TurboID-Sec13, P55735; test: proximity labelling; conditions: remark: other sources report otherwise
T2 chain: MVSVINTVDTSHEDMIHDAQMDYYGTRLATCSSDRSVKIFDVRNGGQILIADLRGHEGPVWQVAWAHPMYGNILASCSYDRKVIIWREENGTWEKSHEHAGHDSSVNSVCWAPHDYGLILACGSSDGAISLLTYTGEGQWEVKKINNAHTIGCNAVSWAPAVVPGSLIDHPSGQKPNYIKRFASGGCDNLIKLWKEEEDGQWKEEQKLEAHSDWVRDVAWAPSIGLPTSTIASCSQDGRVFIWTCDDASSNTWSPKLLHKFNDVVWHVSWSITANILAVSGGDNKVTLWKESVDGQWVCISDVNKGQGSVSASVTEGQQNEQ

B1: Sec24A (protein, UniProt O95486 1-1093)
chain: MSQPGIPASGGAPASLQAQNGAALASGSPYTNGPVQNALLSSQESVSQGYNFQLPGSYPHPIPAKTLNPVSGQSNYGGSQGSGQTLNRPPVASNPVTPSLHSGPAPRMPLPASQNPATTPMPSSSFLPEANLPPPLNWQYNYPSTASQTNHCPRASSQPTVSGNTSLTTNHQYVSSGYPSLQNSFIKSGPSVPPLVNPPLPTTFQPGAPHGPPPAGGPPPVRALTPLTSSYRDVPQPLFNSAVNQEGITSNTNNGSMVVHSSYDEIEGGGLLATPQLTNKNPKMSRSVGYSYPSLPPGYQNTTPPGATGVPPSSLNYPSGPQAFTQTPLGANHLTTSMSGLSLQPEGLRVVNLLQERNMLPSTPLKPPVPNLHEDIQKLNCNPELFRCTLTSIPQTQALLNKAKLPLGLLLHPFKDLVQLPVVTSSTIVRCRSCRTYINPFVSFLDQRRWKCNLCYRVNDVPEEFLYNPLTRVYGEPHRRPEVQNATIEFMAPSEYMLRPPQPPVYLFVFDVSHNAVETGYLNSVCQSLLDNLDLLPGNTRTKIGFITFDSTIHFYGLQESLSQPQMLIVSDIEDVFIPMPENLLVNLNESKELVQDLLKTLPQMFTKTLETQSALGPALQAAFKLMSPTGGRMSVFQTQLPTLGVGALKPREEPNHRSSAKDIHMTPSTDFYKKLALDCSGQQVAVDLFLLSGQYSDLASLGCISRYSAGSVYYYPSYHHQHNPVQVQKLQKELQRYLTRKIGFEAVMRIRCTKGLSIHTFHGNFFVRSTDLLSLPNVNPDAGYAVQMSVEESLTDTQLVSFQSALLYTSSKGERRIRVHTLCLPVVSTLNDVFLGADVQAISGLLANMAVDRSMTASLSDARDALVNAVIDSLSAYRSSVLSNQQPGLMVPFSLRLFPLFVLALLKQKSFQTGTNARLDERIFAMCQVKNQPLVYLMLTTHPSLYRVDNLSDEGALNISDRTIPQPPILQLSVEKLSRDGAFLMDAGSVLMLWVGKNCTQNFLSQVLGVQNYASIPQPMTDLPELDTPESARIIAFISWLREQRPFFPILYVIRDESPMKANFLQNMIEDRTESALSYYEFLLHIQQQVNK
FLAG-Sec16 (human)
  binding: binds
[1]
  binding: binds
TurboID-Sec13
  binding: binds

B2: Sec24B (protein, UniProt O95487 1-1268)
chain: MSAPAGSSHPAASARIPPKFGGAAVSGAAAPAGPGAGPAPHQQNGPAQNQMQVPSGYGLHHQNYIAPSGHYSQGPGKMTSLPLDTQCGDYYSALYTVPTQNVTPNTVNQQPGAQQLYSRGPPAPHIVGSTLGSFQGAASSASHLHTSASQPYSSFVNHYNSPAMYSASSSVASQGFPSTCGHYAMSTVSNAAYPSVSYPSLPAGDTYGQMFTSQNAPTVRPVKDNSFSGQNTAISHPSPLPPLPSQQHHQQQSLSGYSTLTWSSPGLPSTQDNLIRNHTGSLAVANNNPTITVADSLSCPVMQNVQPPKSSPVVSTVLSGSSGSSSTRTPPTANHPVEPVTSVTQPSELLQQKGVQYGEYVNNQASSAPTPLSSTSDDEEEEEEDEEAGVDSSSTTSSASPMPNSYDALEGGSYPDMLSSSASSPAPDPAPEPDPASAPAPASAPAPVVPQPSKMAKPFGYGYPTLQPGYQNATAPLISGVQPSNPVYSGFQQYPQQYPGVNQLSSSIGGLSLQSSPQPESLRPVNLTQERNILPMTPVWAPVPNLNADLKKLNCSPDSFRCTLTNIPQTQALLNKAKLPLGLLLHPFRDLTQLPVITSNTIVRCRSCRTYINPFVSFIDQRRWKCNLCYRVNDVPEEFMYNPLTRSYGEPHKRPEVQNSTVEFIASSDYMLRPPQPAVYLFVLDVSHNAVEAGYLTILCQSLLENLDKLPGDSRTRIGFMTFDSTIHFYNLQEGLSQPQMLIVSDIDDVFLPTPDSLLVNLYESKELIKDLLNALPNMFTNTRETHSALGPALQAAFKLMSPTGGRVSVFQTQLPSLGAGLLQSREDPNQRSSTKVVQHLGPATDFYKKLALDCSGQQTAVDLFLLSSQYSDLASLACMSKYSAGCIYYYPSFHYTHNPSQAEKLQKDLKRYLTRKIGFEAVMRIRCTKGLSMHTFHGNFFVRSTDLLSLANINPDAGFAVQLSIEESLTDTSLVCFQTALLYTSSKGERRIRVHTLCLPVVSSLADVYAGVDVQAAICLLANMAVDRSVSSSLSDARDALVNAVVDSLSAYGSTVSNLQHSALMAPSSLKLFPLYVLALLKQKAFRTGTSTRLDDRVYAMCQIKSQPLVHLMKMIHPNLYRIDRLTDEGAVHVNDRIVPQPPLQKLSAEKLTREGAFLMDCGSVFYIWVGKGCDNNFIEDVLGYTNFASIPQKMTHLPELDTLSSERARSFITWLRDSRPLSPILHIVKDESPAKAEFFQHLIEDRTEAAFSYYEFLLHVQQQICK
FLAG-Sec16 (human)
  binding: binds
[1]
  binding: binds

B3: Sec23B, Q15437 1-767 (protein)
chain: MATYLEFIQQNEERDGVRFSWNVWPSSRLEATRMVVPLACLLTPLKERPDLPPVQYEPVLCSRPTCKAVLNPLCQVDYRAKLWACNFCFQRNQFPPAYGGISEVNQPAELMPQFSTIEYVIQRGAQSPLIFLYVVDTCLEEDDLQALKESLQMSLSLLPPDALVGLITFGRMVQVHELSCEGISKSYVFRGTKDLTAKQIQDMLGLTKPAMPMQQARPAQPQEHPFASSRFLQPVHKIDMNLTDLLGELQRDPWPVTQGKRPLRSTGVALSIAVGLLEGTFPNTGARIMLFTGGPPTQGPGMVVGDELKIPIRSWHDIEKDNARFMKKATKHYEMLANRTAANGHCIDIYACALDQTGLLEMKCCANLTGGYMVMGDSFNTSLFKQTFQRIFTKDFNGDFRMAFGATLDVKTSRELKIAGAIGPCVSLNVKGPCVSENELGVGGTSQWKICGLDPTSTLGIYFEVVNQHNTPIPQGGRGAIQFVTHYQHSSTQRRIRVTTIARNWADVQSQLRHIEAAFDQEAAAVLMARLGVFRAESEEGPDVLRWLDRQLIRLCQKFGQYNKEDPTSFRLSDSFSLYPQFMFHLRRSPFLQVFNNSPDESSYYRHHFARQDLTQSLIMIQPILYSYSFHGPPEPVLLDSSSILADRILLMDTFFQIVIYLGETIAQWRKAGYQDMPEYENFKHLLQAPLDDAQEILQARFPMPRYINTEHGGSQARFLLSKVNPSQTHNNLYAWGQETGAPILTDDVSLQVFMDHLKKLAVSSAC
TurboID-Sec13, P55735
  binding: binds

B4: Sec24B, O95487 1-1268 (protein)
chain: MSAPAGSSHPAASARIPPKFGGAAVSGAAAPAGPGAGPAPHQQNGPAQNQMQVPSGYGLHHQNYIAPSGHYSQGPGKMTSLPLDTQCGDYYSALYTVPTQNVTPNTVNQQPGAQQLYSRGPPAPHIVGSTLGSFQGAASSASHLHTSASQPYSSFVNHYNSPAMYSASSSVASQGFPSTCGHYAMSTVSNAAYPSVSYPSLPAGDTYGQMFTSQNAPTVRPVKDNSFSGQNTAISHPSPLPPLPSQQHHQQQSLSGYSTLTWSSPGLPSTQDNLIRNHTGSLAVANNNPTITVADSLSCPVMQNVQPPKSSPVVSTVLSGSSGSSSTRTPPTANHPVEPVTSVTQPSELLQQKGVQYGEYVNNQASSAPTPLSSTSDDEEEEEEDEEAGVDSSSTTSSASPMPNSYDALEGGSYPDMLSSSASSPAPDPAPEPDPASAPAPASAPAPVVPQPSKMAKPFGYGYPTLQPGYQNATAPLISGVQPSNPVYSGFQQYPQQYPGVNQLSSSIGGLSLQSSPQPESLRPVNLTQERNILPMTPVWAPVPNLNADLKKLNCSPDSFRCTLTNIPQTQALLNKAKLPLGLLLHPFRDLTQLPVITSNTIVRCRSCRTYINPFVSFIDQRRWKCNLCYRVNDVPEEFMYNPLTRSYGEPHKRPEVQNSTVEFIASSDYMLRPPQPAVYLFVLDVSHNAVEAGYLTILCQSLLENLDKLPGDSRTRIGFMTFDSTIHFYNLQEGLSQPQMLIVSDIDDVFLPTPDSLLVNLYESKELIKDLLNALPNMFTNTRETHSALGPALQAAFKLMSPTGGRVSVFQTQLPSLGAGLLQSREDPNQRSSTKVVQHLGPATDFYKKLALDCSGQQTAVDLFLLSSQYSDLASLACMSKYSAGCIYYYPSFHYTHNPSQAEKLQKDLKRYLTRKIGFEAVMRIRCTKGLSMHTFHGNFFVRSTDLLSLANINPDAGFAVQLSIEESLTDTSLVCFQTALLYTSSKGERRIRVHTLCLPVVSSLADVYAGVDVQAAICLLANMAVDRSVSSSLSDARDALVNAVVDSLSAYGSTVSNLQHSALMAPSSLKLFPLYVLALLKQKAFRTGTSTRLDDRVYAMCQIKSQPLVHLMKMIHPNLYRIDRLTDEGAVHVNDRIVPQPPLQKLSAEKLTREGAFLMDCGSVFYIWVGKGCDNNFIEDVLGYTNFASIPQKMTHLPELDTLSSERARSFITWLRDSRPLSPILHIVKDESPAKAEFFQHLIEDRTEAAFSYYEFLLHVQQQICK
TurboID-Sec13, P55735
  binding: binds
